Assay results taken from the supplement of paper PMC10849652.
The other results are listed elsewhere or left out.

Amino acid sequences for entries named in this document (tags omitted). A change or cut given only in a name is not applied to a line headed by its entry.
UniProt Q6PGN9: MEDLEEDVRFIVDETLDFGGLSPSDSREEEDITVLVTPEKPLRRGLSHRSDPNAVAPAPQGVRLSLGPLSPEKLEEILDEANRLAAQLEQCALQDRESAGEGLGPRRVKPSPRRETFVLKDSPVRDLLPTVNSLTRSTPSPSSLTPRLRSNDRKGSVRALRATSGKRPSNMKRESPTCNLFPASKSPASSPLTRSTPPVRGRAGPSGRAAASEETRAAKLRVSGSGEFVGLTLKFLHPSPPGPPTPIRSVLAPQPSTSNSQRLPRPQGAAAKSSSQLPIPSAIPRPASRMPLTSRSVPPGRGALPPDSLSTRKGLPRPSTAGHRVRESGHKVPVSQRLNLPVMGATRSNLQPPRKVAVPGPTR
UniProt Q5JS54: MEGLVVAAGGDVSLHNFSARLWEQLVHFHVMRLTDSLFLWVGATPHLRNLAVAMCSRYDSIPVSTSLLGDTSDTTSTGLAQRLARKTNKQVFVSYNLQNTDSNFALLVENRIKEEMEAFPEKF
UniProt Q9Y606: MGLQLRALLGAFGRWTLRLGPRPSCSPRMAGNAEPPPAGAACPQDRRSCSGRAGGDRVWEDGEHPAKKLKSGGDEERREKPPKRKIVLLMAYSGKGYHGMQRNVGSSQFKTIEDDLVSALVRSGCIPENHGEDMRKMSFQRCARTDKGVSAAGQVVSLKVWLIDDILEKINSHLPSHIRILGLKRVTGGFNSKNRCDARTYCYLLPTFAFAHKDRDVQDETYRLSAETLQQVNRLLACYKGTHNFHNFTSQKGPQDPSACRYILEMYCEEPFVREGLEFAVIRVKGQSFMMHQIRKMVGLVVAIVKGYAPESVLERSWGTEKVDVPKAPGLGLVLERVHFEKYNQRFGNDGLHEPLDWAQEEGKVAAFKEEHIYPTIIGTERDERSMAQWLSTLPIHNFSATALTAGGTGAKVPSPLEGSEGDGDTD
UniProt P48556: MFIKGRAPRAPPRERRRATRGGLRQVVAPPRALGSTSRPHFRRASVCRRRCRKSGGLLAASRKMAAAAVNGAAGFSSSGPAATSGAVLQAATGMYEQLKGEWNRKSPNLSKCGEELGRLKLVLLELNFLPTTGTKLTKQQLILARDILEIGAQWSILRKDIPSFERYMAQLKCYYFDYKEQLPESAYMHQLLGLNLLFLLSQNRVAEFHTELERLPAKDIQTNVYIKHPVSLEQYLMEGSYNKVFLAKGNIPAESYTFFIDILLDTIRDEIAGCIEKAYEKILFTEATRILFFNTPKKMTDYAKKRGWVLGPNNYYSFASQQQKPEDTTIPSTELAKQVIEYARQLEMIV
UniProt P78330: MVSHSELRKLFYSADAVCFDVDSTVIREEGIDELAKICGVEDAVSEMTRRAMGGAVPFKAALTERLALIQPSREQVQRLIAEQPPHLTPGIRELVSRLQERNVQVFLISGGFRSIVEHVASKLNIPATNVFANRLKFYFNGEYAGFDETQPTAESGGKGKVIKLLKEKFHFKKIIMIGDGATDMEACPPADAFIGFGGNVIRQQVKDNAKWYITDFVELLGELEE
UniProt Q14289, whole entry, looked up: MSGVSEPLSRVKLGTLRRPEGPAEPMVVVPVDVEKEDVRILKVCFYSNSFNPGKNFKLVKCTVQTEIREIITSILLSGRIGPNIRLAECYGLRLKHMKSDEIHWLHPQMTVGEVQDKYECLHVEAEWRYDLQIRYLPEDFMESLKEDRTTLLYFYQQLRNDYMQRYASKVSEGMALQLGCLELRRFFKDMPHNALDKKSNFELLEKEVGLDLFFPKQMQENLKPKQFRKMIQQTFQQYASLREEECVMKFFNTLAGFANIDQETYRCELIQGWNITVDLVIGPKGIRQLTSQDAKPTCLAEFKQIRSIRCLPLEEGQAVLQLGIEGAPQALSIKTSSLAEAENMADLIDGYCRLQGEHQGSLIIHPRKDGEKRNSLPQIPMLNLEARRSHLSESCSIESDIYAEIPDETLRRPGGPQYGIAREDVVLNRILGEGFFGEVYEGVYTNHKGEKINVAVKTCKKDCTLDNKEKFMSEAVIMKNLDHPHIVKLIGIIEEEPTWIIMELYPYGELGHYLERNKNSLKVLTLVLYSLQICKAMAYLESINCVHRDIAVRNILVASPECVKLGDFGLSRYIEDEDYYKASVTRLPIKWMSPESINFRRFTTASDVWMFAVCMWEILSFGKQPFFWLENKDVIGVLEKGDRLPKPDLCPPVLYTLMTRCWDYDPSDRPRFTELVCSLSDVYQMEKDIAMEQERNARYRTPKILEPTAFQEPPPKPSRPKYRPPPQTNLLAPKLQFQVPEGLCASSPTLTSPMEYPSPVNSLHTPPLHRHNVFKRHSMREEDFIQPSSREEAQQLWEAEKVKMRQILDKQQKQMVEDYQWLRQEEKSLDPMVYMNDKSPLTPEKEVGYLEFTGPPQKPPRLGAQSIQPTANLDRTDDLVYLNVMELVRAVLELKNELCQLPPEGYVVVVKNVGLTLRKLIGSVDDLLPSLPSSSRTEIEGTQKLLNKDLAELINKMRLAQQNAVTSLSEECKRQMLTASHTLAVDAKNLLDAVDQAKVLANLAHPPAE
UniProt Q99460, whole entry, looked up: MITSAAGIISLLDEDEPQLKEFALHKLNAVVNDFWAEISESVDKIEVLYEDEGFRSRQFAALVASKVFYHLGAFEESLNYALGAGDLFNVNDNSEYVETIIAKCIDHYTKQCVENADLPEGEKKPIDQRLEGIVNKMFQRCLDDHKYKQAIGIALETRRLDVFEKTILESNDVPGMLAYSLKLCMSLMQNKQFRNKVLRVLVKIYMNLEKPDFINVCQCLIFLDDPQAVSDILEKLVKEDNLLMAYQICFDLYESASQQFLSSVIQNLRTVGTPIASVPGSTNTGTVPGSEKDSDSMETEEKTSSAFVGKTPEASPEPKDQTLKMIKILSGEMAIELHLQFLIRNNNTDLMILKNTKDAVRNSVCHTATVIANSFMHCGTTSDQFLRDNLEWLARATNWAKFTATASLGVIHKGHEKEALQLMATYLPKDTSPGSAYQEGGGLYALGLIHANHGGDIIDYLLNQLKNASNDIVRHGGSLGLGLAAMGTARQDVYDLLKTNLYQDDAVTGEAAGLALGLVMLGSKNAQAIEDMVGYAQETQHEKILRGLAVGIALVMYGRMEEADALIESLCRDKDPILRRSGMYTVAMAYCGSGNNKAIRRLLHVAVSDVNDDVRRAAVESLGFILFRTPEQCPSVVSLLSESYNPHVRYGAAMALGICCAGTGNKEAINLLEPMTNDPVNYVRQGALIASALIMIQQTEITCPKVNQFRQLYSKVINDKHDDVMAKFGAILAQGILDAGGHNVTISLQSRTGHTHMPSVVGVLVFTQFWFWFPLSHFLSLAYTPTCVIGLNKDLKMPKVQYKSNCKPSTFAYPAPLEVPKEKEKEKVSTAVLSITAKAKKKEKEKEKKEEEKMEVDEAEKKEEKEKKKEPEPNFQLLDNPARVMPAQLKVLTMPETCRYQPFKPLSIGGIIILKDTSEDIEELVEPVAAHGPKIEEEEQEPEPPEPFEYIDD
UniProt Q13308: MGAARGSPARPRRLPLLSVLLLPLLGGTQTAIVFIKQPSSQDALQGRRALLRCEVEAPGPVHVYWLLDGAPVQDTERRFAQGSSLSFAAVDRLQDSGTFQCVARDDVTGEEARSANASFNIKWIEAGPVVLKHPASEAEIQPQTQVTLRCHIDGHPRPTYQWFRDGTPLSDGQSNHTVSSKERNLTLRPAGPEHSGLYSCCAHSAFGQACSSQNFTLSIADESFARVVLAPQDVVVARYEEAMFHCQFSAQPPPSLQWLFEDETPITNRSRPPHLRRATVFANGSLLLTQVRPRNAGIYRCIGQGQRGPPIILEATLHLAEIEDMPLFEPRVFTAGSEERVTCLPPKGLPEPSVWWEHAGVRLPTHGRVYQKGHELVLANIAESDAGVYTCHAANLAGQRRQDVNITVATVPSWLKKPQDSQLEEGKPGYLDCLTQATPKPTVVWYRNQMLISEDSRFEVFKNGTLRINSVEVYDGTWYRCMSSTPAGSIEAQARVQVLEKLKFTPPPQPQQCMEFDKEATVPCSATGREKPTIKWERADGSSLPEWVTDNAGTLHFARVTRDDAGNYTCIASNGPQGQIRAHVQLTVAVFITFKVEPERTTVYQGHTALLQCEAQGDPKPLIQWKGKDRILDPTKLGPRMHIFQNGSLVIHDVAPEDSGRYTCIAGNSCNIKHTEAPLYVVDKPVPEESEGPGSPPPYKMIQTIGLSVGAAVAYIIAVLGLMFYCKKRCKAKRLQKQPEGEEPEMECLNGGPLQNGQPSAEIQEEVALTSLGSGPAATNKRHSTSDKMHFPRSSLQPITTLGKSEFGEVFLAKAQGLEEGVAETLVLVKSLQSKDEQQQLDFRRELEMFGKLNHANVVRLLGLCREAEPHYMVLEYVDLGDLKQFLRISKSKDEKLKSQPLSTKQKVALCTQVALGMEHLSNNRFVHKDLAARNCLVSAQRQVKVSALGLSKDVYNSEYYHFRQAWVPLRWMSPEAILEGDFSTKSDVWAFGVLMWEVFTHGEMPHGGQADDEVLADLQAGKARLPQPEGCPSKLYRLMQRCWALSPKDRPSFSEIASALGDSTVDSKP
UniProt P26599: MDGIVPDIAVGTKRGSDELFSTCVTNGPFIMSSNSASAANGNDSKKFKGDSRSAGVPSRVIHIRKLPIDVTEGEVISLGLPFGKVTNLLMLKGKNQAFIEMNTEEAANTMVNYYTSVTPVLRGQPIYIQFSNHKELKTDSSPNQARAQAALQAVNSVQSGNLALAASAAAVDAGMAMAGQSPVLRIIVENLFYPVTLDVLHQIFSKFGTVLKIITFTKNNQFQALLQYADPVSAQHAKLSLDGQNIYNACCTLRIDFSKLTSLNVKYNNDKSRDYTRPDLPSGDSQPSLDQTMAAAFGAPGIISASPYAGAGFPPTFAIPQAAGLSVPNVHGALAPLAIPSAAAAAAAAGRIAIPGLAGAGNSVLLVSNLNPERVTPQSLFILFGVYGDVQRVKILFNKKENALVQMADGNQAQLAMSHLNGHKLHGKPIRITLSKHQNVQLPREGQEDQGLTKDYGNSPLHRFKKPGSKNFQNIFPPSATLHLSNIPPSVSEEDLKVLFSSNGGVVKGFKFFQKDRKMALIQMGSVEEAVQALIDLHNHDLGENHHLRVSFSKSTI

What was measured:
Test in all cases: log2 fold change, soluble protein after heating vs DMSO (PISA); higher = thermal stabilisation; K562 lysate, 10 uM; active = over 0.2 and 3.5 SD of the protein, either way, in both replicates (recomputed)
[1] = compound: C1=CC=C(C=C1)[C@H](COC2=CC3=C(C=C2)NC(=O)N3)NC(=O)C4=CC=CN(C4=O)CC5=CC(=C(C=C5)F)F
Procedure, shortened: (§1)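 Dounce homogenisation of K562 pellets in PBS pH 7.4 with 1 mM MgCl2 produced a crude extract, used at 1 mg/mL protein. Exposure to 10 μM compound lasted 30 min, and aliquots were then heated for 3 min across 48°C-58°C, pooled and brought to 0.5% NP-40 at 4°C. The supernatant after 21,000xg for 90 min was quantified by TMTpro 16plex LC-MS/MS with channel sums equalised. Duplicate values are given as log-two fold change in thermal stability relative to solvent controls.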

[2] = compound: CC1=C(SC2=C1C(=N[C@H](C3=NN=C(N32)C)CC(=O)N)C4=CC=C(C=C4)Cl)C
Procedure, shortened: as §1

[3] = compound: CC1=C2C(=CC=C1)N=C(N(C2=O)C3=CC=CC=C3C)CN4C=NC5=C(N=CN=C54)N
Procedure, shortened: as §1

[4] = compound: Cc1sc2c(c1C)C(c1ccc(Cl)cc1)=N[C@@H](CC(=O)OC(C)(C)C)c1nnc(C)n1-2
Procedure, shortened: as §1

[5] = compound: c1ccc([C@@H]2C[C@H]2NC2CCNCC2)cc1
Procedure, shortened: as §1

Measured: log2 fold change

PSRC1 (UniProt Q6PGN9)
inactive: [1] -0.011 | [2] -0.014 | [3] -0.076 | [4] 0.084 | [5] -0.06

PSMG4 isoform 2 (UniProt Q5JS54)
inactive: [1] -0.078 | [2] -0.063 | [3] 0.067 | [4] 0.025 | [5] 0.098

PUS1 (UniProt Q9Y606)
inactive: [1] 0 | [2] 0.014 | [3] 0.013 | [4] -0.024 | [5] 0.029

PSMD8 (UniProt P48556)
inactive: [1] -0.03 | [2] -0.05 | [3] 0.027 | [4] 0.009 | [5] -0.027

PSPH (UniProt P78330)
inactive: [1] -0.023 | [2] 0.068 | [3] 0.017 | [4] 0.015 | [5] -0.065

PTK2B (UniProt Q14289)
inactive: [1] -0.056 | [2] -0.012 | [3] -0.036 | [4] -0.009 | [5] -0.034

PSMD1 (UniProt Q99460)
inactive: [1] 0.003 | [2] -0.017 | [3] 0.017 | [4] 0.018 | [5] 0.031

PTK7 isoform 6 (UniProt Q13308)
inactive: [1] -0.073 | [2] -0.032 | [3] 0.03 | [4] -0.036 | [5] -0.049

PTBP1 (UniProt P26599)
inactive: [1] -0.011 | [2] 0.016 | [3] 0.01 | [4] 0.123 | [5] 0.027
